PubChem BioAssay AID743454 – Peter MacCallum Cancer Centre – 2014
This is one part, drawn at random, of about 18,000 deposited reagents. In the full data, 450 (2.5%) got an active call. 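Single biological run; no consistent viability z cut-off exists, so the class columns, not z-scores, define the calls.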

Screen: 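Knock-downs lowering viability or raising caspase 3/7 activity in vorinostat-treated resistant cells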 (primary screen)
System: human HCT116-VR colon cancer cells, selected for vorinostat resistance
Reagents: siRNA pool against human genes, 40 nM siRNA pool
Time to read-out: vorinostat for 24 h, read-out about 72 h after transfection
Conditions: vorinostat at 2.5 µM final
Measurement: 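Two measures, CellTiter-Fluor viability and luminescent caspase 3/7 activity, each as fold change against same-plate mock wells, mean of duplicates, then screen-wide robust z-score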
Direction: viability robust z-score: higher = more viable cells than screen typical; caspase robust z-score: higher = more caspase 3/7 activity than screen typical
Active means: 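a knock-down is a hit when classed RV1 or RV2 for lowered viability, or CA1 or CA2 for caspase activation; those lethal without drug were dropped; hits were retested singly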

no.	gene	viability hit class	caspase hit class	viability robust z-score	caspase robust z-score	outcome
1	TBX3 (T-box transcription factor 3)	no change	no change	-0.04	-0.62	inactive
2	BOLA3 (bolA family member 3)	no change	no change	1.18	0.15	inactive
3	MACIR (macrophage immunometabolism regulator)	no change	no change	0.83	-0.5	inactive
4	MCM6 (minichromosome maintenance complex component 6)	no change	no change	-0.3	-0.48	inactive
5	KRT38 (keratin 38)	no change	no change	0.22	0.63	inactive
6	GRK4 (G protein-coupled receptor kinase 4)	no change	no change	1	-0.74	inactive
7	SUMO2 (small ubiquitin like modifier 2)	no change	no change	0.63	1.15	inactive
8	RDM1 (RAD52 motif containing 1)	no change	no change	0.48	0.3	inactive
9	TAFA3 (TAFA chemokine like family member 3)	no change	no change	-0.59	-0.25	inactive
10	PIAS1 (protein inhibitor of activated STAT 1)	no change	no change	1.35	-0.15	inactive
11	MATN2 (matrilin 2)	no change	no change	-2.08	0.65	inactive
12	TAC3 (tachykinin precursor 3)	no change	no change	0.08	0.25	inactive
13	SNX24 (sorting nexin 24)	no change	no change	0.99	0.17	inactive
14	NSRP1 (nuclear speckle splicing regulatory protein 1)	no change	no change	-1.77	2.06	inactive
15	PDE6A (phosphodiesterase 6A)	no change	no change	-0.25	-0.88	inactive
16	TGIF2LX (TGFB induced factor homeobox 2 like X-linked)	no change	no change	1.12	0.8	inactive
17	SLC39A11	no change	no change	-0.06	1.73	inactive
18	GSTCD (glutathione S-transferase C-terminal domain containing)	no change	no change	2.09	2.36	inactive
19	CTSS (cathepsin S)	no change	no change	0.47	-0.36	inactive
20	PCDHB12 (protocadherin beta 12)	no change	no change	0.7	-0.3	inactive
21	ZNF22-AS1 (ZNF22 antisense RNA 1)	no change	no change	-0.19	-0.46	inactive
22	NINJ1 (ninjurin 1)	no change	CA1 (caspase activation)	-0.94	5.64	active
23	NQO1 (NAD(P)H quinone dehydrogenase 1)	no change	no change	-0.3	0.85	inactive
24	ZMYM2 (zinc finger MYM-type containing 2)	no change	no change	1.34	-0.06	inactive
25	ZNF831 (zinc finger protein 831)	no change	no change	-0.73	1.37	inactive
26	HSBP1 (heat shock factor binding protein 1)	no change	no change	-0.32	1.87	inactive

Records above with an active call:
gene	viability hit class	caspase hit class	viability robust z-score	caspase robust z-score	outcome
NINJ1 (ninjurin 1)	no change	CA1 (caspase activation)	-0.94	5.64	active

More results follow.
no.	gene	viability hit class	caspase hit class	viability robust z-score	caspase robust z-score	outcome
27	CDK5RAP1 (CDK5RAP1 mitochondrial tRNA methylthiotransferase)	no change	no change	-1.46	3.2	inactive
28	ANKS3 (ankyrin repeat and sterile alpha motif domain containing 3)	no change	no change	0.85	-0.22	inactive
29	GLTPD2 (glycolipid transfer protein domain containing 2)	no change	no change	1.29	-0.57	inactive
30	MORF4L1 (mortality factor 4 like 1)	no change	no change	-0.86	3.8	inactive
31	TAF6 (TATA-box binding protein associated factor 6)	no change	no change	1.17	-0.16	inactive
32	BCKDK (branched chain keto acid dehydrogenase kinase)	no change	no change	0.53	-0.11	inactive
33	PHTF2 (putative homeodomain transcription factor 2)	no change	no change	0.05	-1.08	inactive
34	SMIM19 (small integral membrane protein 19)	no change	no change	0.34	-0.55	inactive
35	DTL (denticleless E3 ubiquitin protein ligase adapter)	no change	no change	-1.07	2.68	inactive
36	ZNF286A (zinc finger protein 286A)	no change	no change	-0.85	-1.08	inactive
37	LSMEM2 (leucine rich single-pass membrane protein 2)	no change	no change	-1.25	-0.02	inactive
38	GRM5 (glutamate metabotropic receptor 5)	no change	no change	-1.55	0.29	inactive
39	LINGO2 (leucine rich repeat and Ig domain containing 2)	no change	no change	0.95	-0.2	inactive
40	FLYWCH1 (FLYWCH-type zinc finger 1)	no change	no change	0.89	-0.42	inactive
41	EFCAB3 (EF-hand calcium binding domain 3)	no change	no change	0.07	-0.76	inactive
42	NUP54 (nucleoporin 54)	no change	CA1 (caspase activation)	-1.24	8.15	active
43	NUP50 (nucleoporin 50)	no change	no change	0.4	1.57	inactive
44	HDAC2 (histone deacetylase 2)	no change	no change	0.42	0.12	inactive
45	MOXD1 (monooxygenase DBH like 1)	no change	no change	0.64	-0.77	inactive
46	MYL11 (myosin light chain 11)	no change	no change	-2.21	1.86	inactive
47	BBS12 (Bardet-Biedl syndrome 12)	no change	no change	0.77	-0.95	inactive
48	PPP1R42 (protein phosphatase 1 regulatory subunit 42)	no change	no change	-0.62	-1.23	inactive
49	CD5L (CD5 molecule like)	no change	no change	0.37	-0.04	inactive
50	DMBT1 (deleted in malignant brain tumors 1)	no change	no change	0.22	0.74	inactive
51	SFRP4 (secreted frizzled related protein 4)	no change	no change	-1.6	-0.82	inactive
52	TEX29 (testis expressed 29)	no change	no change	-1.38	-0.8	inactive
53	VPS37D (VPS37D subunit of ESCRT-I)	no change	no change	-0.84	-0.03	inactive
54	GNG3 (G protein subunit gamma 3)	no change	no change	-0.09	-0.4	inactive
55	PLEKHG6 (pleckstrin homology and RhoGEF domain containing G6)	no change	no change	-0.46	2.22	inactive
56	SH3RF3 (SH3 domain containing ring finger 3)	no change	no change	0.81	0.73	inactive
57	FAM120C (family with sequence similarity 120 member C)	no change	no change	-0.56	0.12	inactive
